Measured data: PubChem BioAssay AID1224826 (NIAID, 2016)
Test: 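Genes that change LPS-induced Tnf promoter activity in mouse macrophages when knocked down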 (primary screen). Cell system: RAW264.7 G9 macrophages from mouse bearing reporters for p65 (GFP) and the Tnf promoter (mCherry). Reagents: siRNA pool against mouse genes, 100 nM. Time to read-out: 16 h of LPS stimulation, after 2 days of siRNA transfection. Treatment: bacterial lipopolysaccharide (Salmonella minnesota R595), 10 ng/ml. Measurement: 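Imaged Tnf reporter mCherry in nuclei, minus background, normalised per plate to the median and expressed as robust z-scores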. Scale: Tnf reporter robust z-score: higher = stronger Tnf promoter reporter signal after LPS; Tnf reporter intensity: higher = stronger Tnf promoter reporter signal. Active means: 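a well counts as active at a score of -1.3 or below (Tlr4 knock-down control median) or above 3 (raised signal); controls and wells holding fewer than 50 cells are excluded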. Meaning of the calls: active = Tnf reporter clearly lowered or raised; inactive = no clear change in Tnf reporter.
The deposit covers about 17,000 reagents; below is an unselected part. About 1,110 of all reagents (6.6%) count as active. 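Active means lowered or raised reporter signal; replicate intensities are raw and not normalised per plate.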

no.	gene symbol	Tnf reporter robust z-score	fewer than 50 cells in well	Tnf reporter intensity, replicate 1	Tnf reporter intensity, replicate 2	Call
1	Nop56	-0.55	enough cells in well	187	94.5	inactive
2	Thop1	1.79	enough cells in well	189	149	inactive
3	Gstz1	0.66	enough cells in well	339	265	inactive
4	Tjp1	-0.27	enough cells in well	233	109	inactive
5	Trp53bp1	-0.14	enough cells in well	189	255	inactive
6	Guf1	0.73	enough cells in well	172	236	inactive
7	Rae1	-0.7	enough cells in well	82.1	116	inactive
8	Pola2	0.59	enough cells in well	130	181	inactive
9	Chmp4b		fewer than 50 cells per well; well left out of calls	61.5	0	inactive
10	Slc27a5	0.1	enough cells in well	118	90.2	inactive
11	Irx4	-0.1	enough cells in well	249	132	inactive
12	Dmgdh	-0.26	enough cells in well	208	192	inactive
13	Ranbp17	-0.12	enough cells in well	142	106	inactive
14	Cyp27b1	-0.75	enough cells in well	183	144	inactive
15	BC016548	-0.55	enough cells in well	169	169	inactive
16	Sra1	3.88	enough cells in well	213	246	active
17	Gmds	1.35	enough cells in well	394	214	inactive
18	S100a5	0.05	enough cells in well	292	224	inactive

A portion of the results above, for reference:
no.	gene symbol	Tnf reporter robust z-score	fewer than 50 cells in well	Tnf reporter intensity, replicate 1	Tnf reporter intensity, replicate 2	Call
14	Cyp27b1	-0.75	enough cells in well	183	144	inactive
15	BC016548	-0.55	enough cells in well	169	169	inactive

Further reagents follow.
no.	gene symbol	Tnf reporter robust z-score	fewer than 50 cells in well	Tnf reporter intensity, replicate 1	Tnf reporter intensity, replicate 2	Call
19	Fam110b	3.11	enough cells in well	342	213	active
20	Sorbs2	-0.09	enough cells in well	175	182	inactive
21	Gpr19	-0.15	enough cells in well	178	326	inactive
22	BC035947	-0.51	enough cells in well	172	171	inactive
23	Polr1g	0.28	enough cells in well	271	69.3	inactive
24	Cdk9		fewer than 50 cells per well; well left out of calls	97.1	48.4	inactive
25	Synb	0.8	enough cells in well	247	199	inactive
26	Lin52		fewer than 50 cells per well; well left out of calls	94.4	95.7	inactive
27	Or55b10		fewer than 50 cells per well; well left out of calls	49.6	38.1	inactive
28	Crtam	1.21	enough cells in well	346	270	inactive
29	C630004L07Rik	0.57	enough cells in well	134	194	inactive
30	Dclre1a	0.13	enough cells in well	222	260	inactive
31	Acaa1b	-1.43	enough cells in well	102	54	active
32	Trmt10b	-0.49	enough cells in well	87.8	126	inactive
33	D830013H23Rik	-1.63	enough cells in well	112	63.7	active
34	Pheta2		fewer than 50 cells per well; well left out of calls	146	97.3	inactive
35	Mus81	-0.17	enough cells in well	212	101	inactive
36	Xpo4	0.11	enough cells in well	79	186	inactive
37	Clba1	1.02	enough cells in well	296	257	inactive
38	Slfn4	1.76	enough cells in well	175	144	inactive
39	Galnt10	-0.84	enough cells in well	176	99.3	inactive
40	Mmp14	0.8	enough cells in well	317	275	inactive
